Measured values as given in publication PMC4476799, “Englerin A Agonizes the TRPC4/C5 Cation Channels to Inhibit Tumor Cell Line Proliferation” (PLoS ONE, 2015).
Further values from the same series stand in other lists.

System: cancer cell lines from the cancer cell line encyclopedia (CCLE)
Experiment: Cell line profiling (CLiP) proliferation experiment
Format: cell-based
Design: ACTIVITY_AREA: scale not given here; AMAX: unit not given here
Description: Compound profiling experiment and data analysis was performed as previously described. Data was imported and plotted using the Tibco Spotfire DXP application. Lines were categorized as sensitive, intermediate and refractory as follows: Amax<-40 & Inflection Point <2 ~ Sensitive, Amax>-20 & Inflection Point >10 ~ Refractory, all else were called Intermediate. Cancer Cell line HG-U133 Plus 2 data was processed and normalized as described. […] Five sets of refractory cell lines were generated from the pool of refractory cell lines trying to match the lineage composition of the set of sensitive cell lines. The limma package was used as previously described to perform the statistical comparison.

[1] = TOV-21G (ovary, clear_cell_carcinoma)
[2] = TOV-112D (ovary, endometrioid_carcinoma)
[3] = TT2609-C02 (thyroid, follicular_carcinoma)
[4] = U266B1 (haematopoietic_and_lymphoid_tissue)
[5] = U266B1 (haematopoietic_and_lymphoid_tissue, plasma_cell_myeloma)
[6] = U-118 MG (central_nervous_system, astrocytoma)
[7] = U-251 MG (central_nervous_system)
[8] = U-251 MG (central_nervous_system, astrocytoma)
[9] = U-937 (haematopoietic_and_lymphoid_tissue)
[10] = U-937 (haematopoietic_and_lymphoid_tissue, malignant_histiocytosis)
[11] = WSU-DLCL2 (haematopoietic_and_lymphoid_tissue)
[12] = Z-138 (haematopoietic_and_lymphoid_tissue)
[13] = cell line 697, haematopoietic_and_lymphoid_tissue, acute_lymphoblastic_leukaemia
[14] = cell line 1321N1 (central_nervous_system, astrocytoma)
[15] = cell line 1321N1, central_nervous_system, astrocytoma
[16] = cell line A4/Fuk, haematopoietic_and_lymphoid_tissue, diffuse_large_B_cell_lymphoma
[17] = cell line A172, central_nervous_system, astrocytoma_Grade_IV
[18] = cell line A549, lung, adenocarcinoma
[19] = cell line A2780, ovary, adenocarcinoma
[20] = cell line A-253, salivary_gland, mucoepidermoid_carcinoma
[21] = cell line A-498, kidney, renal_cell_carcinoma
[22] = cell line ABC-1, lung, non_small_cell_carcinoma
[23] = cell line ACC-MESO-1, pleura, NS
[24] = cell line ACHN, kidney, renal_cell_carcinoma

## CC(C)[C@@]12C[C@@H](O)[C@@](C)(O1)[C@@H]1CC[C@@H](C)[C@H]1[C@@H]2OC(=O)/C=C/c1ccccc1 [Englerin B]
[1]
  ACTIVITY_AREA: 52.76
  AMAX: -60.59
  RESPONSE: INTERMEDIATE
TOV-112D (ovary)
  ACTIVITY_AREA: 27.12
  AMAX: -74.35
  RESPONSE: INTERMEDIATE
[2]
  ACTIVITY_AREA: 27.12
  AMAX: -74.35
  RESPONSE: INTERMEDIATE
[3]
  ACTIVITY_AREA: 22.23
  AMAX: -58.54
  RESPONSE: INTERMEDIATE
TT2609-C02 cells
  ACTIVITY_AREA: 22.23
  AMAX: -58.54
  RESPONSE: INTERMEDIATE
[4]
  ACTIVITY_AREA: 13.19
  AMAX: -42.3
  RESPONSE: INTERMEDIATE
[5]
  ACTIVITY_AREA: 13.19
  AMAX: -42.3
  RESPONSE: INTERMEDIATE
[6]
  ACTIVITY_AREA: 17.9
  AMAX: -38.77
  RESPONSE: INTERMEDIATE
[7]
  ACTIVITY_AREA: 34.78
  AMAX: -31.64
  RESPONSE: INTERMEDIATE
[8]
  ACTIVITY_AREA: 34.78
  AMAX: -31.64
  RESPONSE: INTERMEDIATE
[9]
  ACTIVITY_AREA: 49.13
  AMAX: -82.46
  RESPONSE: INTERMEDIATE
[10]
  ACTIVITY_AREA: 49.13
  AMAX: -82.46
  RESPONSE: INTERMEDIATE
UACC-62 (skin)
  ACTIVITY_AREA: 41.15
  AMAX: -44.29
  RESPONSE: INTERMEDIATE
UACC-257 (skin)
  ACTIVITY_AREA: 31.33
  AMAX: -80.26
  RESPONSE: INTERMEDIATE
UM-UC-3 (urinary_tract)
  ACTIVITY_AREA: 37.41
  AMAX: -54.71
  RESPONSE: INTERMEDIATE
VM-CUB1 (urinary_tract)
  ACTIVITY_AREA: 96.55
  AMAX: -58.31
  RESPONSE: INTERMEDIATE
VMRC-RCW (kidney)
  ACTIVITY_AREA: 10.22
  AMAX: -25.65
  RESPONSE: INTERMEDIATE
VMRC-RCZ (kidney)
  ACTIVITY_AREA: 26.25
  AMAX: -46.92
  RESPONSE: INTERMEDIATE
WM1799 (skin)
  ACTIVITY_AREA: 44.8
  AMAX: -38.05
  RESPONSE: INTERMEDIATE
WM-88 (skin)
  ACTIVITY_AREA: 55.16
  AMAX: -34.98
  RESPONSE: INTERMEDIATE
WM-115 (skin)
  ACTIVITY_AREA: 73.29
  AMAX: -15.29
  RESPONSE: REFRACTORY
WM-266-4 (skin)
  ACTIVITY_AREA: 31.57
  AMAX: -38.36
  RESPONSE: INTERMEDIATE
WM-793 (skin)
  ACTIVITY_AREA: 26.94
  AMAX: -46.79
  RESPONSE: INTERMEDIATE
WM-983B (skin)
  ACTIVITY_AREA: 63.66
  AMAX: -43.12
  RESPONSE: INTERMEDIATE
WS1 (skin)
  ACTIVITY_AREA: 21.77
  AMAX: -26.6
  RESPONSE: INTERMEDIATE
[11]
  ACTIVITY_AREA: 47.3
  AMAX: -92.11
  RESPONSE: INTERMEDIATE
YAPC (pancreas)
  ACTIVITY_AREA: 25.5
  AMAX: -44.67
  RESPONSE: INTERMEDIATE
YKG1 (central_nervous_system)
  ACTIVITY_AREA: 26.45
  AMAX: -20.02
  RESPONSE: INTERMEDIATE
YMB-1 (breast)
  ACTIVITY_AREA: 29.44
  AMAX: -63.02
  RESPONSE: INTERMEDIATE
[12]
  ACTIVITY_AREA: 90.79
  AMAX: -65.74
  RESPONSE: INTERMEDIATE
ZR-75-1 (breast)
  ACTIVITY_AREA: 42.06
  AMAX: -53.16
  RESPONSE: INTERMEDIATE
ZR-75-30 (breast)
  ACTIVITY_AREA: 30.23
  AMAX: -46.93
  RESPONSE: INTERMEDIATE
Cell line 8-MG-BA
  ACTIVITY_AREA: 36.6
  AMAX: -52.73
  RESPONSE: INTERMEDIATE
Cell line 22Rv1, prostate, NS
  ACTIVITY_AREA: 30.61
  AMAX: -53.2
  RESPONSE: INTERMEDIATE
Cell line 59M
  ACTIVITY_AREA: 26.55
  AMAX: -38.54
  RESPONSE: INTERMEDIATE
[13]
  ACTIVITY_AREA: 47.18
  AMAX: -80.98
  RESPONSE: INTERMEDIATE
Cell line 786-O
  ACTIVITY_AREA: 46.1
  AMAX: -38.05
  RESPONSE: INTERMEDIATE
[14]
  ACTIVITY_AREA: 44.21
  AMAX: -46.66
  RESPONSE: INTERMEDIATE
[15]
  ACTIVITY_AREA: 44.21
  AMAX: -46.66
  RESPONSE: INTERMEDIATE
Cell line 23132/87
  ACTIVITY_AREA: 152.84
  AMAX: -72.44
  RESPONSE: INTERMEDIATE
[16]
  ACTIVITY_AREA: 67.88
  AMAX: -69.84
  RESPONSE: INTERMEDIATE
Cell line A101D, skin, NS
  ACTIVITY_AREA: 15.59
  AMAX: -37.08
  RESPONSE: INTERMEDIATE
Cell line A172
  ACTIVITY_AREA: 7.84
  AMAX: 1.3
  RESPONSE: REFRACTORY
[17]
  ACTIVITY_AREA: 7.84
  AMAX: 1.3
  RESPONSE: REFRACTORY
[18]
  ACTIVITY_AREA: 37.23
  AMAX: -58.53
  RESPONSE: INTERMEDIATE
Cell line A2058, skin, NS
  ACTIVITY_AREA: 56.89
  AMAX: -70.85
  RESPONSE: INTERMEDIATE
[19]
  ACTIVITY_AREA: 23.16
  AMAX: -68.66
  RESPONSE: INTERMEDIATE
Cell line A-204
  ACTIVITY_AREA: 22.22
  AMAX: -45.81
  RESPONSE: INTERMEDIATE
[20]
  ACTIVITY_AREA: 47.22
  AMAX: -88.59
  RESPONSE: INTERMEDIATE
Cell line A-375, skin, NS
  ACTIVITY_AREA: 20.24
  AMAX: -2.69
  RESPONSE: REFRACTORY
Cell line A-498
  ACTIVITY_AREA: 91
  AMAX: -64.89
  RESPONSE: INTERMEDIATE
[21]
  ACTIVITY_AREA: 91
  AMAX: -64.89
  RESPONSE: INTERMEDIATE
Cell line A-673, bone, NS
  ACTIVITY_AREA: 9.6
  AMAX: -13.83
  RESPONSE: REFRACTORY
[22]
  ACTIVITY_AREA: 13.47
  AMAX: -42.78
  RESPONSE: INTERMEDIATE
[23]
  ACTIVITY_AREA: 116.48
  AMAX: -48.31
  RESPONSE: INTERMEDIATE
[24]
  ACTIVITY_AREA: 59.56
  AMAX: -29.85
  RESPONSE: INTERMEDIATE
Cell line AGS
  ACTIVITY_AREA: 127.27
  AMAX: -69.99
  RESPONSE: INTERMEDIATE
Cell line AGS, stomach, adenocarcinoma
  ACTIVITY_AREA: 127.27
